The results in this text go back to paper doi:10.1101/2024.02.28.577416.

Where a chain is given by its changes, count along the chain named. The exact form of at least one protein or probe is not confirmed. For some assays here: A negative result means that nothing was seen under these conditions. Tags and fusion partners may be left off the protein sequences shown.

For series [1], the target named is T1, SCO4122 (MarR family regulator) (Streptomyces coelicolor) (UniProt Q9KYE8).
T1 sequence (looked up, limits assumed): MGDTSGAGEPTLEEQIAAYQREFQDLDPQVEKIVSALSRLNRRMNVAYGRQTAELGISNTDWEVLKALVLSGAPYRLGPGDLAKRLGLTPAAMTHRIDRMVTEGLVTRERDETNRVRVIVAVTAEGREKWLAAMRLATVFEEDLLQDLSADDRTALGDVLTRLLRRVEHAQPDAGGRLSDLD
The series is described as follows: SPR. (SPR reads the build-up and loss of mass on a sensor chip optically.)

Series [2] deals with T2, M93L-SCO4122 (Streptomyces coelicolor) (UniProt Q9KYE8).
T2 sequence (looked up, limits assumed): T1 sequence (looked up, limits assumed) with M93L
In words: SPR. As to conditions: protein immobilized on CM5, no drug.

[3] abbreviates: protein immobilized on CM5, no drug.

Consider “CTCTCCTACTCCCCCAGCTACCGCTGTGCCACTGCCACTTACTTGCCGCCCGGCAAGTTGTCTACACTGGGAAAGGTAGGCGCGTAACTAGCCGGGCGTCAAGTAAGTTTTTCGGAAAGTGCGCGGGGCAGGAGGTGCGTAGGAGGATGGGCGGCACG (double strand) [Non-specific (NS) DNA, SCO3366 promoter region]”, for which the binding result in series [1] (setting [3]) is listed as “no binding”.

For orientation: Kd means the free concentration of one partner at which half of the binding sites on the other are occupied at equilibrium, for simple one-to-one binding. Read a low Kd as tighter binding. Regarding “TGCCCTGGTCACGTTCACCCTCTCTTGATCTCTCGGATCGTCCGCTCCAGCCGTTAGAGCTGAAGACTTAGAAGCTAAAGTTCGAAGGTGAAGAGTACATATCGAAGGACTTCAAAGCAAAGGAGTTGCGTGCCATACTGCGGCC (double strand)”, the Kd in series [2] is 2110 nM; in series [1] (setting [3]) it was 400 nM.

Take “TGCCCTGGTCACGTTCACCCTCTCTTGATCTCTCGGATCGTCCGCTCCAGCCGTTAGAGCTGAAGACTTAGAAGCTAAAGTTCGAAGGTGAAGAGTACATATCGAAGGACTTCAAAGCAAAGGAGTTGCGTGCCATACTGCGGCC (double strand) [5' biotinylated sco4121 control region]”: the Kd in series [1] (DNA immobilized on SA chip, no drug) came out at 226 nM; in series [1] (chloramphenicol (50-200 nM), 2 uM protein), 81.8 nM; in series [1] (ciprofloxacin (5-20 nM), 2 uM protein), 3.1 nM; in series [1] (streptomycin (50-200 nM), 2 uM protein), 9.1 nM. Further, the binding result in series [1] (tetracycline (5-20 nM), 2 uM protein, no change in KD) is on record as “binds”.
